Laboratory results: publication PMC11130292
These are yes or no findings as the source states them, for the method shown. In cells and extracts the contact can be indirect. Some binding calls cover weakened binding; strength is not graded here.

Protein sequences, listed by entry. Tags and fused reporters are not part of them.
UniProt Q6ZNE5: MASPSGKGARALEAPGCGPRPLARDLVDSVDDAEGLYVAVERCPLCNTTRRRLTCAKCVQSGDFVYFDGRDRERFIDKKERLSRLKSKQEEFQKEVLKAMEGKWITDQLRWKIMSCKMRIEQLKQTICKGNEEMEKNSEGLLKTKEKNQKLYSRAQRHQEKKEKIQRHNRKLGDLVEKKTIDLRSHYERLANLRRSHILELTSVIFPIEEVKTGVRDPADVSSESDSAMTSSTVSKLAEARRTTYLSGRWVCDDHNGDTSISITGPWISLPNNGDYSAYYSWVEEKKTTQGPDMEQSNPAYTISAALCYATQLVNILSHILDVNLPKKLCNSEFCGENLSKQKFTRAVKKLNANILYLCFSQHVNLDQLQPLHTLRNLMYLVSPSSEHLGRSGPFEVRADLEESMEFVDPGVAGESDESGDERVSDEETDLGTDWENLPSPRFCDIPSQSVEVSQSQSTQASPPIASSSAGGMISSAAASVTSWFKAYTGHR
UniProt P19474: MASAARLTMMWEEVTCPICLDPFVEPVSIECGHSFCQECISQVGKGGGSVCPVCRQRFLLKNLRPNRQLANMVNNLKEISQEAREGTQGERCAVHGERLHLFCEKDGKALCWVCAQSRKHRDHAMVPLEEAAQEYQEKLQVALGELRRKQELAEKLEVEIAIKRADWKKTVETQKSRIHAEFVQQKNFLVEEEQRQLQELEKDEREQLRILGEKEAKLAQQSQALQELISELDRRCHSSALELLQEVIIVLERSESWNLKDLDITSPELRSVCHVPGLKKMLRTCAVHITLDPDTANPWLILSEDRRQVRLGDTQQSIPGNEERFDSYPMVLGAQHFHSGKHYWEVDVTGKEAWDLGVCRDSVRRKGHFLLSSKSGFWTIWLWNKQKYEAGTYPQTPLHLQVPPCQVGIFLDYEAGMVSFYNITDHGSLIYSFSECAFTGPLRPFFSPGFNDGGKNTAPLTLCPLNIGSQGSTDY

Molecular target: T1, interferon-related developmental regulator 1 (IFRD1), ectopically expressed in HepG2 cells (UniProt O00458)
T1 sequence: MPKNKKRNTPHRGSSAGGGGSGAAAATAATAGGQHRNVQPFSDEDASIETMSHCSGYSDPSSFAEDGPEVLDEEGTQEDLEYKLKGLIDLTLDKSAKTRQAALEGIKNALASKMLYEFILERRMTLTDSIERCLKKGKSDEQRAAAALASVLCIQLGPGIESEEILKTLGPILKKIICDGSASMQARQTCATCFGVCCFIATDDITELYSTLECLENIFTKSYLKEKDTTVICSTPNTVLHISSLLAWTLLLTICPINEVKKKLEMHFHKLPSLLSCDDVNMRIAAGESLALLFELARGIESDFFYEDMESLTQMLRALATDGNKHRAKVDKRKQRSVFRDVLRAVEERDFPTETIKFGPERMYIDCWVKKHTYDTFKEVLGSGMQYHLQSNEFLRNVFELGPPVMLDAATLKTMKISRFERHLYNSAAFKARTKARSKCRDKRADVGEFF
Assay: co-IP; proteins ectopically expressed in HepG2 cells; lysis in 50 mM Tris-HCl pH 7.4, 150 mM NaCl, 1 mM EDTA, 5% glycerol, 0.4% Triton X-100, 0.4% NP-40; anti-FLAG M2 beads or antibodies on protein A + G agarose, 4 °C, 4 h; western blot

| binding | Substance |
| --- | --- |
| binds | ATG14, ectopically expressed in HepG2 cells (from UniProt Q6ZNE5 1-492) |
| binds | TRIM21, ectopically expressed in HepG2 cells (from UniProt P19474 1-475) |
